Measured data: PubChem BioAssay AID602196 (INSERM, 2012)
In all, the deposit lists about 23,000 reagents; this is a random part of them. 455 of them (2%) count as active. 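Active includes both protection and sensitisation; some change values fall well beyond the stated -50 to +50 range.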 Not given: the amount of reagent.

- Screen: 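Modifiers of cisplatin sensitivity in A549 cells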
- Cell system: human A549 lung cancer cells
- Reagents: siRNA pair against human genes
- Duration: 48 h transfection before cisplatin; time from cisplatin to read-out not stated
- Treatment: cisplatin at a dose killing half of control-siRNA cells; exact dose and duration not given
- Detection: 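Shift in cisplatin death relative to control siRNA, from -50 (all cells die) to +50 (no cells die); siRNAs harmful on their own scored 0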
- Direction: two-siRNA summed score (-2 to +2): higher = both siRNAs protect from cisplatin killing; -2 means both sensitise; mean protection from cisplatin (shift in death) and protection from cisplatin (shift in death), siRNA C and protection from cisplatin (shift in death), siRNA D: higher = protection from cisplatin killing
- Active means: 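Each siRNA scores 0 if harmful alone by LDH or WST-1, otherwise +1 if it reduces and -1 if it increases cisplatin killing; a gene is active when both siRNAs agree (sum +2 or -2)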
- Meaning of the calls: active = both siRNAs shift cisplatin killing the same way; inactive = no consistent shift, or siRNA harmful alone

The opening 3 entries, ahead of the listing:
Gene | two-siRNA summed score (-2 to +2) | mean protection from cisplatin (shift in death) (%) | protection from cisplatin (shift in death), siRNA C (%) | protection from cisplatin (shift in death), siRNA D (%) | activity call
CERS3 | 0 | 2.4 | 1.7 | 3.2 | inactive
CCDC198 | -1 | -7.2 | 10.3 | -24.7 | inactive
ATOH7 | 0 | 5.5 | 2.1 | 8.9 | inactive

Main list, from the start:
Gene | two-siRNA summed score (-2 to +2) | mean protection from cisplatin (shift in death) (%) | protection from cisplatin (shift in death), siRNA C (%) | protection from cisplatin (shift in death), siRNA D (%) | activity call
CERS3 | 0 | 2.4 | 1.7 | 3.2 | inactive
CCDC198 | -1 | -7.2 | 10.3 | -24.7 | inactive
ATOH7 | 0 | 5.5 | 2.1 | 8.9 | inactive
CYB5B | 0 | 6.6 | 11 | 2.3 | inactive
CD96 | 0 | 4 | 6.9 | 1.1 | inactive
ETS1 | 0 | 3.7 | 4.8 | 2.7 | inactive
LOC143158 | 0 | 14.9 | 22.6 | 7.2 | inactive
NSFL1C | 0 | 9.9 | 11 | 8.8 | inactive
FNDC9 | 0 | -6.4 | -2.3 | -10.6 | inactive
SNX22 | -1 | -14.7 | -1.9 | -27.5 | inactive
FOLR3 | 0 | 9.9 | -6 | 25.8 | inactive
LOC284390 | 1 | 25.8 | 24.2 | 27.5 | inactive
FLJ40311 | 0 | 12.4 | 17.6 | 7.2 | inactive
NTN1 | 0 | -1.5 | 6.9 | -10 | inactive
MCM5 | 1 | 5.6 | 25.3 | -14.1 | inactive
GPR85 | 0 | 9.1 | 3.4 | 14.8 | inactive
GTPBP8 | 0 | 7.8 | 8.7 | 6.9 | inactive
LINC00477 | 0 | 18.5 | 19.2 | 17.7 | inactive
USP33 | 0 | -22.1 | -43 | -1.3 | inactive
H2BC14 | 0 | 9.3 | 13.4 | 5.1 | inactive
SASH3 | -1 | -7.9 | -3.4 | -12.4 | inactive
LOC400714 | 0 | 4.9 | 8.2 | 1.5 | inactive
ZNF366 | 0 | 2 | 14.6 | -10.6 | inactive
ZMYND8 | 0 | -9.9 | 4.9 | -24.7 | inactive
LOC402353 | 0 | 2.8 | 11.7 | -6.1 | inactive
PGRMC1 | -1 | -25.9 | -31.1 | -20.7 | inactive
UBE3B | 0 | -4.8 | -17.5 | 7.8 | inactive
SNX21 | 1 | 17.8 | 18 | 17.7 | inactive
PTX3 | 0 | 9.4 | 13.3 | 5.5 | inactive
LINC01278 | 0 | -0.8 | -0.7 | -0.8 | inactive
DLEU1 | 1 | 2.4 | 9.8 | -5.1 | inactive
LOC440392 | 1 | 4.5 | -4.8 | 13.8 | inactive
SERTAD4 | -1 | -22.1 | -30.9 | -13.3 | inactive
CXCL13 | -1 | -15.7 | 8.5 | -39.9 | inactive
TULP4 | 0 | -5.6 | 8 | -19.1 | inactive
LINC00545 | 1 | 19.1 | 17.6 | 20.6 | inactive
NAV2-AS5 | 1 | 11.6 | 19.7 | 3.6 | inactive
SLC6A14 | 0 | -8 | -15.8 | -0.2 | inactive
LOC100287792 | 0 | 7.5 | 7.9 | 7.1 | inactive
